# Results of single-concentration screens

Protein sequences, listed by entry. Tags and fused reporters are not part of them. Residues count along the entry.
UniProt Q8IDJ8, 1-583: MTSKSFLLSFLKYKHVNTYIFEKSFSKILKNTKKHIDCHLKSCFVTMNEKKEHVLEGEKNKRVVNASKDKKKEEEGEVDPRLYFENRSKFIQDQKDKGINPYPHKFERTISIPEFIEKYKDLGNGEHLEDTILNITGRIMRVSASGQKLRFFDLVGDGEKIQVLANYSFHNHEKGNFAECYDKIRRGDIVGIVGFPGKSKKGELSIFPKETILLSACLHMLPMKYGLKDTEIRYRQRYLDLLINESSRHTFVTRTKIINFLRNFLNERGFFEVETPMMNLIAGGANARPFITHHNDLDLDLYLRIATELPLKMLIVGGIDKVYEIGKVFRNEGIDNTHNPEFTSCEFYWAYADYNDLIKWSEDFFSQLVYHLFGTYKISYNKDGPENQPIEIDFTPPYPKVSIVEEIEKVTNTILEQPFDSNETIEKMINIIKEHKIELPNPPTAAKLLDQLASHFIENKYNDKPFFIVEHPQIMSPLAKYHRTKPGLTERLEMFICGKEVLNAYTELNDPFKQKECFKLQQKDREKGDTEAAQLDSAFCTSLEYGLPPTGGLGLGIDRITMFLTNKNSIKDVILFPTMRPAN
UniProt I6X8D2, whole entry: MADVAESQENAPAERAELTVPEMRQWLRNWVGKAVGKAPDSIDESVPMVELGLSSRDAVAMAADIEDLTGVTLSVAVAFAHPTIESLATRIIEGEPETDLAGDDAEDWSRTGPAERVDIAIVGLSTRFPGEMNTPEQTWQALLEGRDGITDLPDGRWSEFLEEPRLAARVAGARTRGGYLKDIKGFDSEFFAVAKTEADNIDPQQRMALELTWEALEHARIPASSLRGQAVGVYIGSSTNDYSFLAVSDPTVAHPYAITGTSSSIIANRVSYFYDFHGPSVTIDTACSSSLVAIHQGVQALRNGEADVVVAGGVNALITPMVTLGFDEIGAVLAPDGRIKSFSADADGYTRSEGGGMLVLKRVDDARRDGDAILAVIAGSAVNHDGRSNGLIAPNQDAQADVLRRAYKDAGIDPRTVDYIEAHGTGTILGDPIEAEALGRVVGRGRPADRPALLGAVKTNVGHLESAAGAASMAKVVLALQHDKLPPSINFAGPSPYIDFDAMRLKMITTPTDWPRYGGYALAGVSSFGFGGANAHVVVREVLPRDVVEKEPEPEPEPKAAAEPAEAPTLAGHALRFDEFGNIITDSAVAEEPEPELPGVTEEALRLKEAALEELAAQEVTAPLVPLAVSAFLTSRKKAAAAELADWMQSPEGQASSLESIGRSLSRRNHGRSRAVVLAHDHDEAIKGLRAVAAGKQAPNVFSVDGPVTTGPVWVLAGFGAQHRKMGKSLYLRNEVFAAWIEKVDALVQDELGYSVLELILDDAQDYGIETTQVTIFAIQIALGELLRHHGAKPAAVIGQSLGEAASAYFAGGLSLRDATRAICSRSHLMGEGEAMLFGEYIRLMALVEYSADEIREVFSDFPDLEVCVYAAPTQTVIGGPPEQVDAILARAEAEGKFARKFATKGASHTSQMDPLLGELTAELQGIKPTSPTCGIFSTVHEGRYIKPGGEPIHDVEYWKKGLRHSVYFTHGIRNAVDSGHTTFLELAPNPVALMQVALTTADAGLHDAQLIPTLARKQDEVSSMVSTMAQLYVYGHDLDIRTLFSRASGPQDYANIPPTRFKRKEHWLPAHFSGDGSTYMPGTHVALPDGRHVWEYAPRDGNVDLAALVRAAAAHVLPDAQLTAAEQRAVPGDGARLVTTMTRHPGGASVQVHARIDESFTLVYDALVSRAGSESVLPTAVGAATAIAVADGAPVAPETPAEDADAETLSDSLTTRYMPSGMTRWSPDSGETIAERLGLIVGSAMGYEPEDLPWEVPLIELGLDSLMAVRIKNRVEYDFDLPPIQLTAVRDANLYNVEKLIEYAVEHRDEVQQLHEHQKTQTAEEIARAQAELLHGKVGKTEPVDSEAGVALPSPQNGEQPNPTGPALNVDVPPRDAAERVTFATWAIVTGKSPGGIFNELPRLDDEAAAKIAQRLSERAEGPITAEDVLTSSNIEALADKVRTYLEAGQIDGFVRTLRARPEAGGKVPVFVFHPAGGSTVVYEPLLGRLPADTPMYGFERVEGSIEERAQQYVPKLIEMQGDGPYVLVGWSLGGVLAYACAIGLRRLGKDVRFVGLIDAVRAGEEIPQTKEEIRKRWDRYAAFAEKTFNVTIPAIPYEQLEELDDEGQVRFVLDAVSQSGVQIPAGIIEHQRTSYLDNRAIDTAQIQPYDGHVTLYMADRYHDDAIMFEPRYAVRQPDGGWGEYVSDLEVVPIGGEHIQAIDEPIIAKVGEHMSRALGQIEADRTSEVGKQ
UniProt P9WNZ1, whole entry: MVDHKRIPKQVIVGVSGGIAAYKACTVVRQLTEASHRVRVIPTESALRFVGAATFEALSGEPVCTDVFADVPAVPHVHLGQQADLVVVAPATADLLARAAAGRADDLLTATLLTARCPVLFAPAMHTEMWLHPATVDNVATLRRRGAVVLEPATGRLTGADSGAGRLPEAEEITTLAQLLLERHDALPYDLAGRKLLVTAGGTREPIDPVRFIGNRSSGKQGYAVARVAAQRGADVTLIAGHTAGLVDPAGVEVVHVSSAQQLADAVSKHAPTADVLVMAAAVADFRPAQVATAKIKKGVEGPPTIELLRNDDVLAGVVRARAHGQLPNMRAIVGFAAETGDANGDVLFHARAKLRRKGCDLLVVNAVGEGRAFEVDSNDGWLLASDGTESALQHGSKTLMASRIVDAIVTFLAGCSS
UniProt Q4DA54, 1-478: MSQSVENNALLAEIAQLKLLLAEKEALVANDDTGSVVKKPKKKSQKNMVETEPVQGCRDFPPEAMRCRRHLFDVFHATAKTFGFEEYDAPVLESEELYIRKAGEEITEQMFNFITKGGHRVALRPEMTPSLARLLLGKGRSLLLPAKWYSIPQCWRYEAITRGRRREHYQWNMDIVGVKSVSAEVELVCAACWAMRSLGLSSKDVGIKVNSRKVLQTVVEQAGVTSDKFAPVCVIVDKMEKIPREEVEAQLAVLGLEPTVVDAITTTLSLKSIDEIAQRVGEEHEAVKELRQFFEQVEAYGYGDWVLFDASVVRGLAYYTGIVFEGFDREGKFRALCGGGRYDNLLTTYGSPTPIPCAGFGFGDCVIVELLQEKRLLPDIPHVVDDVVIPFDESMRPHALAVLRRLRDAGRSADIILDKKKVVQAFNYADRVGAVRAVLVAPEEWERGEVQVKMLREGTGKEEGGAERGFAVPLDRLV
UniProt P9WFT3, whole entry: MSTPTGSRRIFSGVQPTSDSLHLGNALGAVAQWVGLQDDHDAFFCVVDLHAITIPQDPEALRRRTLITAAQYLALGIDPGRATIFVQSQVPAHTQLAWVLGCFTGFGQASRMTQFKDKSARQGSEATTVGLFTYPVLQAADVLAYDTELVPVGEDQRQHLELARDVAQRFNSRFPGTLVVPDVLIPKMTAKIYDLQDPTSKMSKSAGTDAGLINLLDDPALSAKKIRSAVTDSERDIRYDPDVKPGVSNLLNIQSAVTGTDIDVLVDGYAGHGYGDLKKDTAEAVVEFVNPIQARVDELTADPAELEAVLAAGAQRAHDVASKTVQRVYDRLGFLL
UniProt P9WPC5, whole entry: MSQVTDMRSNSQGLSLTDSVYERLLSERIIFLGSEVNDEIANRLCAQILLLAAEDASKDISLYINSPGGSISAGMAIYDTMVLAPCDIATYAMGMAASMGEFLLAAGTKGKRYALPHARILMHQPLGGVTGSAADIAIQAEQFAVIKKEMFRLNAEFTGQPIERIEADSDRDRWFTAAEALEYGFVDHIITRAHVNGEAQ
UniProt P9WPC3, whole entry partner: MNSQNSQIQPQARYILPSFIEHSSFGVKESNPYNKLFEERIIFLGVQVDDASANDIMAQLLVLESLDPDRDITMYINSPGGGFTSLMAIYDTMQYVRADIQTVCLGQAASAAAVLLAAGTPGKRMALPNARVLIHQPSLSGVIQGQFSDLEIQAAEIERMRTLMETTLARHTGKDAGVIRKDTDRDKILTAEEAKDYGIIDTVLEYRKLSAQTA

Measurements from “University of Dundee, Small-Polar-MMV Screening Library” (2021), ChEMBL document CHEMBL3988442.

Each number is a percent effect as filed.
The controls that fix the scale are not given in the record; negative values are as filed.
The compounds are a random part of those screened.

PfKRS1: 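Lysine-tRNA ligase, Plasmodium falciparum 3D7 (UniProt Q8IDJ8). Enzyme assay of the cytosolic lysyl-tRNA synthetase in 384-well plates, read by luminescence. Concentration: 30 µM. Higher reads as stronger inhibition, judged from the few compounds that gave an IC50. About 69,000 compounds were tested under these conditions; 0.071% (about 49) showed 50% or more at least once.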
Pks13 thioesterase: 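Polyketide synthase Pks13, Mycobacterium tuberculosis (UniProt I6X8D2). Enzyme assay of the thioesterase domain of polyketide synthase 13; the read-out is not stated. Tested at 30 µM. The record gives no direction; the compounds picked for IC50 retests had high values, so higher reads as stronger inhibition. Size under these conditions: about 67,000 compounds, about 300 of them at 50% or above in at least one test.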
CoaBC: 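Coenzyme A biosynthesis protein CoaBC, Mycobacterium tuberculosis (UniProt P9WNZ1). Enzyme assay of CoaBC with a phosphate dye (Biomol Green) read at 650 nm. Concentration: 30 µM. Direction is inferred from only a few compounds that gave an IC50; most scored high, so higher reads as stronger inhibition. Most strong results did not repeat in a second test. Of about 67,000 compounds tested this way, about 40 (0.06%) reached 50% or more in at least one test.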
TcHisRS: 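Enzyme assay of histidyl-tRNA synthetase; the read-out is not stated. Target: Histidine-tRNA ligase, Trypanosoma cruzi CL Brener (UniProt Q4DA54). Concentration: 30 µM. Higher reads as stronger inhibition (inferred: compounds with an IC50 in retests scored well above the rest). Size under these conditions: about 69,000 compounds, about 31 of them at 50% or above in at least one test.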
MtTrpRS: 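Tryptophan-tRNA ligase, Mycobacterium tuberculosis (UniProt P9WFT3). Enzyme assay of tryptophanyl-tRNA synthetase; the read-out is not stated. Tested at 10 µM. Higher most likely means stronger inhibition; the record gives no direction and few retests gave an IC50. Size under these conditions: about 65,000 compounds, about 64 of them at 50% or above in at least one test.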
ClpP1P2: 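Protease assay of ClpP1P2, read by the AMC dye that it sets free. Target: ClpP1P2, Mycobacterium tuberculosis (UniProt P9WPC5 and UniProt P9WPC3). Compounds at 50 µM. Direction is inferred from only a few compounds that gave an IC50; most scored high, so higher reads as stronger inhibition. Most other retested compounds had strongly negative values. Size under these conditions: about 69,000 compounds, about 10 of them at 50% or above in at least one test.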

- CCc1cc(N2CCC(NC3CCOCC3)CC2)nc(N(C)C)n1 : PfKRS1: 1.425%; Pks13 thioesterase: -10.74%; CoaBC: 1.202%; TcHisRS: 11.39%; MtTrpRS: -0.5708%; ClpP1P2: -1.917%
- CC(CO)NC(=O)Nc1ccc(COC2CCCC2)cc1 (stereo unspecified) : PfKRS1: 0.05555%; Pks13 thioesterase: -13.47%; CoaBC: 3.614%; TcHisRS: 4.255%; MtTrpRS: 3.185%; ClpP1P2: -3.594%
- Cc1cccc(CS(=O)(=O)Cc2ccn(C)c(=O)c2)c1 : PfKRS1: 6.347%; Pks13 thioesterase: -7.369%; CoaBC: 3.968%; TcHisRS: 3.448%; MtTrpRS: -4.956%; ClpP1P2: 4.354%
- CO[C@@H]1CCN(C(=O)c2ccsc2)[C@@H]2CN(CC3CC3)C[C@@H]21 : PfKRS1: 7.772%; Pks13 thioesterase: -30.4%; CoaBC: 3.218%; TcHisRS: 4.854%; MtTrpRS: -4.36%; ClpP1P2: 8.033%
- CCc1noc(CN2CCN(C(=O)Cc3ccc(F)cc3)CC2)n1 : PfKRS1: 2.943%; Pks13 thioesterase: -31.43%; CoaBC: 0.2141%; TcHisRS: 3.409%; MtTrpRS: 4.669%; ClpP1P2: 9.552%
- NC(=O)c1cc(NC(=O)N2CCCCCC2)ccc1F : PfKRS1: -5.937%; Pks13 thioesterase: -17.34%; CoaBC: 9.317%; TcHisRS: -1.604%; MtTrpRS: 19.32%; ClpP1P2: 13.75%
- O=C(NCCc1ccccc1)C1CCN(C(=O)Cn2cncn2)C1 (stereo unspecified) : PfKRS1: 1.724%; Pks13 thioesterase: -9.812%; CoaBC: 6.993%; TcHisRS: 3.383%; MtTrpRS: 2.42%; ClpP1P2: 17.42%
- CCCc1noc(C(C)S(=O)(=O)Cc2nc(C3CC3)no2)n1 (stereo unspecified) : PfKRS1: 4.856%; Pks13 thioesterase: 12.6%; CoaBC: 0.4202%; TcHisRS: 4.444%; MtTrpRS: 3.774%; ClpP1P2: 5.132%
- CCC(O)CN(CC(=O)Nc1cc(C)no1)c1ccccc1 (stereo unspecified) : PfKRS1: 3.947%; Pks13 thioesterase: 1.562%; CoaBC: -2.211%; TcHisRS: 7.407%; MtTrpRS: 3.846%; ClpP1P2: -6.108%
- Cc1ccc2c(c1)C1(CCNCC1)CC2NC(C)C (stereo unspecified) : PfKRS1: 2.155%; Pks13 thioesterase: -45.84%; CoaBC: -7.4%; TcHisRS: 7.527%; MtTrpRS: 0.7752%; ClpP1P2: 1.534%
- Cc1cc(C)n(CC(C)CNC(=O)NCc2ccco2)n1 (stereo unspecified) : PfKRS1: 6.184%; Pks13 thioesterase: 3.523%; CoaBC: 6.957%; TcHisRS: 8.021%; MtTrpRS: -2.794%; ClpP1P2: 8.508%
- Fc1cccc(C2(CNC3CCOC4(CCOCC4)C3)CCOCC2)c1 (stereo unspecified) : PfKRS1: 2.355%; Pks13 thioesterase: -14.46%; CoaBC: 0.4474%; TcHisRS: 11.34%; MtTrpRS: 0.7341%; ClpP1P2: 22.83%
- OCC1CCCN1c1cc(NCc2cccc3cccnc23)ncn1 (stereo unspecified) : PfKRS1: -0.3937%; Pks13 thioesterase: -10.34%; CoaBC: 1.136%; TcHisRS: 8.069%; MtTrpRS: -8.566%; ClpP1P2: -21.83%
- CCCc1cc(C(=O)NC(COC)c2ccnn2C)no1 (stereo unspecified) : PfKRS1: -7.444%; Pks13 thioesterase: 1.033%; CoaBC: 2.384%; TcHisRS: 10.45%; MtTrpRS: 2.754%; ClpP1P2: 9.004%
- Cc1oc(C)c(C(=O)NCc2ccccn2)c1C : PfKRS1: -0.667%; Pks13 thioesterase: -2.092%; CoaBC: -0.266%; TcHisRS: 1.901%; MtTrpRS: 2.044%; ClpP1P2: 5.959%
- Cn1ccc(C(=O)Nc2cc(F)ccc2OCC2CCCO2)cc1=O (stereo unspecified) : PfKRS1: -0.5256%; Pks13 thioesterase: -12.16%; CoaBC: 4.779%; TcHisRS: 2.857%; MtTrpRS: -4.061%; ClpP1P2: -5.651%
- O=C(O)[C@@H]1CN(C(=O)CN2Cc3ccccc3C2)C[C@H]1c1ccncc1 : PfKRS1: 8.23%; Pks13 thioesterase: 3.403%; CoaBC: 7.006%; TcHisRS: 5.6%; MtTrpRS: 3.099%; ClpP1P2: 5.383%
- Cc1nnc(CN(CCc2ccccc2)C2CCN(C)CC2)s1 : PfKRS1: 8.259%; Pks13 thioesterase: -19.92%; CoaBC: 18.74%; TcHisRS: 6.736%; MtTrpRS: 0.25%; ClpP1P2: 10.51%
- Cc1ccsc1[C@@H]1CCN(C(=O)Cc2ccc(O)cc2)C[C@H]1O : PfKRS1: 6.79%; Pks13 thioesterase: -7.67%; CoaBC: -1.142%; TcHisRS: 6.931%; MtTrpRS: -5.542%; ClpP1P2: -11.64%
- CC(=O)N1CCC(c2ccnc(Nc3cncnc3)n2)C1 (stereo unspecified) : PfKRS1: -4.111%; Pks13 thioesterase: -28.62%; CoaBC: 3.109%; TcHisRS: 1.639%; MtTrpRS: -0.3524%; ClpP1P2: 9.693%
- C=Cn1ncc(CN2C[C@@H]3CCCN3C[C@H]2CCSC)c1C : PfKRS1: 1.148%; Pks13 thioesterase: -43.76%; CoaBC: 0.2778%; TcHisRS: -2.703%; MtTrpRS: 7.274%; ClpP1P2: -6.854%
- O=C(NCCn1nc(-n2cncn2)ccc1=O)c1ccccc1Br : PfKRS1: -1.974%; Pks13 thioesterase: -3.995%; CoaBC: -2.179%; TcHisRS: 4%; MtTrpRS: 2.087%; ClpP1P2: -16.36%
- O=C(c1ccoc1)N1CCC(NCc2ccccc2-n2ccnc2)CC1 : PfKRS1: 1.49%; Pks13 thioesterase: -1.884%; CoaBC: 0.5894%; TcHisRS: 1.724%; MtTrpRS: 6.743%; ClpP1P2: 4.419%

For reference, 3 entries once more:

Result for CCC(O)CN(CC(=O)Nc1cc(C)no1)c1ccccc1 (stereo unspecified) was PfKRS1: 3.947%; Pks13 thioesterase: 1.562%; CoaBC: -2.211%; TcHisRS: 7.407%; MtTrpRS: 3.846%; ClpP1P2: -6.108%.
Result for CCc1cc(N2CCC(NC3CCOCC3)CC2)nc(N(C)C)n1 was PfKRS1: 1.425%; Pks13 thioesterase: -10.74%; CoaBC: 1.202%; TcHisRS: 11.39%; MtTrpRS: -0.5708%; ClpP1P2: -1.917%.
Result for C=Cn1ncc(CN2C[C@@H]3CCCN3C[C@H]2CCSC)c1C was PfKRS1: 1.148%; Pks13 thioesterase: -43.76%; CoaBC: 0.2778%; TcHisRS: -2.703%; MtTrpRS: 7.274%; ClpP1P2: -6.854%.